From paper PMC10002493, “Direct Oral FXa Inhibitors Binding to Human Serum Albumin: Spectroscopic, Calorimetric, and Computational Studies” (International Journal of Molecular Sciences, 2023) come the findings set out here.

Counter-ions that a name gives are not always drawn.

One data set has as its system T1, fatty-acid-free HSA.
T1 construct: purchased Sigma-Aldrich
The data set can be described thus: Isothermal titration calorimetry (ITC) of anticoagulants with HSA. The class given is binding, human. The note with it: phosphate buffer 10 mM, pH 7.4. The method, then:
ITC analyses were performed in phosphate buffer, 10 mM, pH = 7.4. […] Lower ionization enthalpy reduces heat signals associated with proton-exchange reactions between the buffer and the ligand/host system during complex formation. […] A plot of the heat released per mole of HSA as a function of the molar ratio of the solution ([HSA]/[anticoagulant]) is shown at the foot of each figure. […] Control titrations were performed (drug over buffer) and subtracted from each analysis before the fitting.
ITC data were obtained using a MicroCal PEAQ-ITC instrument (Malvern Panalytical). […] Working solutions were prepared using aliquots of the stock solutions of anticoagulants diluted in phosphate buffer, 10 mM, pH = 7.4. […] The first injection was 0.40 μL, followed by 12 injections of 3.0 μL. Reference power was set to 5 μcal/s, 500 rpm stirring speed, initial delay of 60 s, and injection spacing of 150 s. Titration curves were drawn in duplicate and the thermodynamic parameters were fitted to the one-site binding model using Microcal PEAQ-ITC analysis software. Controls were measured by recording the heat effects of the titrant over plain buffer and were subtracted from thermograms before fitting analysis. All the measurements were performed in duplicate.
(Isothermal titration calorimetry measures the heat released or taken up as one component is titrated into another.)

Data set [1] relates to T2, human serum albumin (HSA).
T2 construct: purchased Sigma-Aldrich
Kind of data set: Time-resolved fluorescence lifetimes (TCSPC) of HSA–anticoagulant complexes. The data set is classed as binding. The note with it: aerated, 293 K, λex 279 nm.

In the case of `COc1ccc(NC(=O)c2ccc(C(=N)N(C)C)cc2)c(C(=O)Nc2ccc(Cl)cn2)c1` [BEM, betrixaban maleate], the “ITC heat-evolution signals compared with control dilution experiments” value with fatty-acid-free HSA is “showed heat-evolution signals associated with the binding processes”.

For the compound `COc1ccc(NC(=O)c2ccc(C(=N)N(C)C)cc2)c(C(=O)Nc2ccc(Cl)cn2)c1` [BE, betrixaban], in data set [1] (HSA:drug 1:1, HSA 2 µM), the “<τF> average fluorescence lifetime” value came out at 5.32, the A1 pre-exponential factor amounted to 0.39, the A2 pre-exponential factor came to 0.61 and the τ1 fluorescence lifetime came to 3.03 ns. The compound also displayed a τ2 fluorescence lifetime in data set [1] (HSA:drug 1:1, HSA 2 µM) of 6.78 ns. In data set [1] (HSA:drug 1:2, HSA 2 µM), the “<τF> average fluorescence lifetime” value was 5.30, the A1 pre-exponential factor worked out at 0.38, the A2 pre-exponential factor is recorded as 0.62 and the τ1 fluorescence lifetime was determined as 2.89 ns. Also, the τ2 fluorescence lifetime in data set [1] (HSA:drug 1:2, HSA 2 µM) is 6.78 ns. Further, in data set [1] (HSA:drug 1:4, HSA 2 µM), the “<τF> average fluorescence lifetime” value came out at 5.26, the A1 pre-exponential factor came out at 0.38, the A2 pre-exponential factor was found to be 0.62 and the τ1 fluorescence lifetime was 2.86 ns. Also, in data set [1] (HSA:drug 1:4, HSA 2 µM), the τ2 fluorescence lifetime is recorded as 6.73 ns. Further, in data set [1] (HSA:drug 1:6, HSA 2 µM), the “<τF> average fluorescence lifetime” value stood at 5.21, the A1 pre-exponential factor worked out at 0.35, the A2 pre-exponential factor came to 0.65 and the τ1 fluorescence lifetime was found to be 2.60 ns. In data set [1] (HSA:drug 1:6, HSA 2 µM), this compound came in with a τ2 fluorescence lifetime of 6.61 ns.

`O=C(NC[C@H]1CN(c2ccc(N3CCOCC3=O)cc2)C(=O)O1)c1ccc(Cl)s1` [RV, rivaroxaban]: in data set [1] (HSA:drug 1:1, HSA 2 µM), the “<τF> average fluorescence lifetime” value is reported as 5.28, the A1 pre-exponential factor is listed as 0.40, the A2 pre-exponential factor worked out at 0.60 and the τ1 fluorescence lifetime stood at 3.00 ns. The τ2 fluorescence lifetime in data set [1] (HSA:drug 1:1, HSA 2 µM) was determined as 6.80 ns. In data set [1] (HSA:drug 1:2, HSA 2 µM), the “<τF> average fluorescence lifetime” value is on record as 5.25, the A1 pre-exponential factor turned out to be 0.41, the A2 pre-exponential factor is 0.59 and the τ1 fluorescence lifetime came to 2.98 ns. The same compound yielded a τ2 fluorescence lifetime in data set [1] (HSA:drug 1:2, HSA 2 µM) of 6.82 ns. Also, in data set [1] (HSA:drug 1:4, HSA 2 µM), the “<τF> average fluorescence lifetime” value is listed as 5.22, the A1 pre-exponential factor is given as 0.42, the A2 pre-exponential factor is reported as 0.58 and the τ1 fluorescence lifetime is 2.98 ns. In data set [1] (HSA:drug 1:4, HSA 2 µM), this compound yielded a τ2 fluorescence lifetime of 6.85 ns. Moreover, in data set [1] (HSA:drug 1:6, HSA 2 µM), the “<τF> average fluorescence lifetime” value was found to be 5.18, the A1 pre-exponential factor is 0.43, the A2 pre-exponential factor was determined as 0.57 and the τ1 fluorescence lifetime worked out at 2.94 ns. Besides, in data set [1] (HSA:drug 1:6, HSA 2 µM), the τ2 fluorescence lifetime came out at 6.87 ns.

For the compound `CN1CCc2nc(C(=O)N[C@@H]3C[C@@H](C(=O)N(C)C)CC[C@@H]3NC(=O)C(=O)Nc3ccc(Cl)cn3)sc2C1` [ED, edoxaban], in data set [1] (HSA:drug 1:1, HSA 2 µM), the “<τF> average fluorescence lifetime” value is given as 5.31, the A1 pre-exponential factor was determined as 0.39, the A2 pre-exponential factor stood at 0.61 and the τ1 fluorescence lifetime is recorded as 2.99 ns. In data set [1] (HSA:drug 1:1, HSA 2 µM), this compound showed a τ2 fluorescence lifetime of 6.80 ns. In addition, in data set [1] (HSA:drug 1:2, HSA 2 µM), the “<τF> average fluorescence lifetime” value amounted to 5.25, the A1 pre-exponential factor is given as 0.40, the A2 pre-exponential factor is 0.60 and the τ1 fluorescence lifetime was determined as 2.93 ns. This compound had a τ2 fluorescence lifetime in data set [1] (HSA:drug 1:2, HSA 2 µM) of 6.80 ns. Further, in data set [1] (HSA:drug 1:4, HSA 2 µM), the “<τF> average fluorescence lifetime” value came out at 5.11, the A1 pre-exponential factor amounted to 0.40, the A2 pre-exponential factor is recorded as 0.60 and the τ1 fluorescence lifetime is on record as 2.71 ns. Also, in data set [1] (HSA:drug 1:4, HSA 2 µM), the τ2 fluorescence lifetime was 6.71 ns. Also, in data set [1] (HSA:drug 1:6, HSA 2 µM), the “<τF> average fluorescence lifetime” value amounted to 5.01, the τ1 fluorescence lifetime stood at 2.94 ns and the τ2 fluorescence lifetime was determined as 6.88 ns.

Turning to `COc1ccc(-n2nc(C(N)=O)c3c2C(=O)N(c2ccc(N4CCCCC4=O)cc2)CC3)cc1` [AP, apixaban], in data set [1] (HSA:drug 1:1, HSA 2 µM), the “<τF> average fluorescence lifetime” value is listed as 5.30, the A1 pre-exponential factor worked out at 0.45, the A2 pre-exponential factor is listed as 0.55 and the τ1 fluorescence lifetime was 3.22 ns. The compound also displayed a τ2 fluorescence lifetime in data set [1] (HSA:drug 1:1, HSA 2 µM) of 7.01 ns. Also, in data set [1] (HSA:drug 1:2, HSA 2 µM), the “<τF> average fluorescence lifetime” value was 5.23, the A1 pre-exponential factor worked out at 0.41, the A2 pre-exponential factor is on record as 0.59 and the τ1 fluorescence lifetime is listed as 2.93 ns. The same compound had a τ2 fluorescence lifetime in data set [1] (HSA:drug 1:2, HSA 2 µM) of 6.83 ns. In data set [1] (HSA:drug 1:4, HSA 2 µM), the “<τF> average fluorescence lifetime” value turned out to be 5.19, the A1 pre-exponential factor stood at 0.38, the A2 pre-exponential factor is recorded as 0.62 and the τ1 fluorescence lifetime is 2.73 ns. For the same compound, the τ2 fluorescence lifetime in data set [1] (HSA:drug 1:4, HSA 2 µM) turned out to be 6.69 ns. Further, in data set [1] (HSA:drug 1:6, HSA 2 µM), the “<τF> average fluorescence lifetime” value worked out at 5.16, the A1 pre-exponential factor came to 0.42, the A2 pre-exponential factor worked out at 0.58 and the τ1 fluorescence lifetime is 2.86 ns. This compound yielded a τ2 fluorescence lifetime in data set [1] (HSA:drug 1:6, HSA 2 µM) of 6.83 ns. In the data set on fatty-acid-free HSA, the “ITC heat-evolution signals compared with control dilution experiments” value is recorded as “showed heat-evolution signals associated with the binding processes”.
